According to PMC8143644:
These are yes or no findings as the source states them, for the method shown. Binding seen in cells or lysates may run through a third protein. Here binding means that the protein was enriched with, or labelled near, the bait; the list need not be complete. Sequences can lack the tags named with a protein.

How the values were obtained:
Experiment in all cases: affinity purification with mass spectrometry; whole ovaries of flies expressing GFP-tagged baits lysed in 50 mM Tris-HCl pH 7.5, 100 mM NaCl, 250 mM sucrose, 0.1% Nonidet P-40, 1 mM DTT; RNase A/T1 treated; GFP-TRAP MA beads, 1 h at 4 °C; tag alone as control; label-free LC-MS/MS (all six baits) and dimethyl labeling MS (Hrp48, Vas)
[1] = target: T1, Hrp48-GFP (Drosophila melanogaster) (UniProt P48809)
T1 sequence: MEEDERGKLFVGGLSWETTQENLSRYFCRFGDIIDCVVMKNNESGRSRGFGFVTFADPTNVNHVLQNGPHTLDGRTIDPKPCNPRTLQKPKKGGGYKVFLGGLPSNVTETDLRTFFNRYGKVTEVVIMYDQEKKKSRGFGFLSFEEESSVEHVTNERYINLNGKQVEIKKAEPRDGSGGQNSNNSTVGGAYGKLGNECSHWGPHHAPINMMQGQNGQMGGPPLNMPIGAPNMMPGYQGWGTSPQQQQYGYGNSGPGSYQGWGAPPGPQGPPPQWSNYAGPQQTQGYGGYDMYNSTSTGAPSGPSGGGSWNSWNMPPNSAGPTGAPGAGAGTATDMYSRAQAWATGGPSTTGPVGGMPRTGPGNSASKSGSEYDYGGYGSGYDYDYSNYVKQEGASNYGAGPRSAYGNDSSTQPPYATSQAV

[2] = target: T2, Glo-GFP (Drosophila melanogaster) (UniProt Q9VGH5)
T2 sequence: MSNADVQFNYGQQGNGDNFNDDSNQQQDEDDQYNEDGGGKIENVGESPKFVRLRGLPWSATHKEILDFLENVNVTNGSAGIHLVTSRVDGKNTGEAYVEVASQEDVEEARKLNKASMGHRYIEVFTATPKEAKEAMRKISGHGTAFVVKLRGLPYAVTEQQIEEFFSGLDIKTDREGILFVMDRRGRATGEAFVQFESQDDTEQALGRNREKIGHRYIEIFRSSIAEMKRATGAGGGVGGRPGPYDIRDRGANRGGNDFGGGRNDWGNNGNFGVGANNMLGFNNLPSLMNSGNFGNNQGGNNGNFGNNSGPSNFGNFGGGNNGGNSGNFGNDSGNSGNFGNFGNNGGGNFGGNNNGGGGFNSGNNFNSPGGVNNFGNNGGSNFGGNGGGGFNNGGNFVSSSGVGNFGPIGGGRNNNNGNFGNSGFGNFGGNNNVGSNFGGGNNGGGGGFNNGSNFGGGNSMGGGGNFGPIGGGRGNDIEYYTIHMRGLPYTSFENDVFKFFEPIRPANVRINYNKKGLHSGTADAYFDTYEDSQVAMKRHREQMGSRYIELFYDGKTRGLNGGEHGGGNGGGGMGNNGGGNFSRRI

[3] = target: T3, Vas-GFP (Drosophila melanogaster) (UniProt P09052)
T3 sequence: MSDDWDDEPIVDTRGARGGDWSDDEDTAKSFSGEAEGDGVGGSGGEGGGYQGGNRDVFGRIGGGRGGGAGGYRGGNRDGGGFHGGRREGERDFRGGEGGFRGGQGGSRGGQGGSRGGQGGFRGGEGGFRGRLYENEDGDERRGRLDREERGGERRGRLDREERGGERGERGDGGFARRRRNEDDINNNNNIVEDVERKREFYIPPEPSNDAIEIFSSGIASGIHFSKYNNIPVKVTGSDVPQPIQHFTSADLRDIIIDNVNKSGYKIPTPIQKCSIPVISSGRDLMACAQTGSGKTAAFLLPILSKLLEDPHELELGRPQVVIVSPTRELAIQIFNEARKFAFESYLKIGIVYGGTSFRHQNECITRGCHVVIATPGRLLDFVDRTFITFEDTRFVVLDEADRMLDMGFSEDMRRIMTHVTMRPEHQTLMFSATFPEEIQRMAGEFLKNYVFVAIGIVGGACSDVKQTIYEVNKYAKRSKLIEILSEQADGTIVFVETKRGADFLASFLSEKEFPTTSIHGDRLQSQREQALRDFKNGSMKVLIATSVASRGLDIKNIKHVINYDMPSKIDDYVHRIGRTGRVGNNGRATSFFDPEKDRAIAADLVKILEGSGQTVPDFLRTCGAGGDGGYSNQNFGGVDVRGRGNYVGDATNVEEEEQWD

B1: Ovarian Tumor (protein, UniProt P10383 1-853)
chain: MDMQVQRPITSGSRQAPDPYDQYLESRGLYRKHTARDASSLFRVIAEQMYDTQMLHYEIRLECVRFMTLKRRIFEKEIPGDFDSYMQDMSKPKTYGTMTELRAMSCLYRRNVILYEPYNMGTSVVFNRRYAENFRVFFNNENHFDSVYDVEYIERAAICQSIAFKLLYQKLFKLPDVSFAVEIMLHPHTFNWDRFNVEFDDKGYMVRIHCTDGRVFKLDLPGDTNCILENYKLCNFHSTNGNQSINARKGGRLEIKNQEERKASGSSGHEPNDLLPMCPNRLESCVRQLLDDGISPFPYKVAKSMDPYMYRNIEFDCWNDMRKEAKLYNVYINDYNFKVGAKCKVELPNETEMYTCHVQNISKDKNYCHVFVERIGKEIVVPYESLHPLPPDEYRPWSLPFRYHRQMPRLPLPKYAGKANKSSKWKKNKLFEMDQYFEHSKCDLMPYMPVDNCYQGVHIQDDEQRDHNDPEQNDQNPTTEQRDREEPQAQKQHQRTKASRVQPQNSSSSQNQEVSGSAAPPPTQYMNYVPMIPSRPGHLPPPWPASPMAIAEEFPFPISGTPHPPPTEGCVYMPFGGYGPPPPGAVALSGPHPFMPLPSPPLNVTGIGEPRRSLHPNGEDLPVDMVTLRYFYNMGVDLHWRMSHHTPPDELGMFGYHQQNNTDQQAGRTVVIGATEDNLTAVESTPPPSPEVANATEQSPLEKSAYAKRNLNSVKVRGKRPEQLQDIKDSLGPAAFLPTPTPSPSSNGSQFSFYTTPSPHHHLITPPRLLQPPPPPPIFYHKAGPPQLGGAAQGQTPYAWGMPAPVVSPYEVINNYNMDPSAQPQQQQPATLQPAPLSVQSQPAAVYAATRHH
binding [1]: binds

B2: Cup (protein, UniProt Q9VMA3 1-1117)
chain: MQMAEAEQENGAGALKIATNAGATDRPAHQQLPLPVEDQQDEVLTPAEKGKFEYPPPPPPPTPVQAPLATKATALNASQEHDDDEANSEKWEDPCAPPPPPPLPTSAFLATGLGYLKLPAFKLKDALEKAITKLEANKRTLKASPESSRSIKNKNVVALEMLPRRSNPETIGDGSMLASTSTAVMLQTKKPAVIVEMERRCKIINLLAKQNQILESISGEAIPMHGPSKHLHEDEGLTLQVLSARASTPYTQPSSMLSCTAVSCDLEHDSPRKQVASKEAVPEQQSSQVQQKRPPSTGIHKPGSLRAPKAVRPTTAPVVSSKPVKSYTRSRLMDIRNGMFNALMHRSKESFVMPRIATCDDIELEGRLRRMNIWRTSDGTRFRTRSTTANLNMNNNNNNECMPAFFKNKNKPNLISDESIIQSQPPQPQTEFQDPAIVNQRRIGSGRLNHSKWGYNDEDYHSYHNGKSQHMEEVNSKNSKNMTVLQFFDNGEISSQPQRRPNTPVMGMSINRSENDTLHSNESSEDLSRANENYVKRVMSGFLVVSKPKSRDVEDRHHRRYRNQNEEPEWFSCGPTSRLDTIELCGFDEDEEKMLKEGNKNHGLGETERETSKQKMDHKYKWTHAEPMGRSKYMPKHDTNNNHNVENMNNVMATEHQQQKEEKRPGSGRSFQFDKFNQSQQNYESSSYVNHQQPPQTQPQQMQQQSNTNTNNSKFMSFFANEGNSSSSSLNEFFKQAINQGHGNNPEQPKSLGHIGQMPSVDQLEAKWRRNSLNNVGETANKQTDNFQKLIGSLSSAKPQSQAVGYDAISNFIMQQQQYQQQQQKQHLIIQQQQQHTAFLASLQLKAILGRADTQLLLLRLTKGEISKHGLLVQLANPRLTDMDREAITAVLQFTNTQQQQQQHKQQLDMLSSTVIASQLQNLHNLAIVQQTLAARQQPQHNPQTQAPHQLSQEDLQAHANVIMRNAVMKRKIEEQTSKLINGGAKHQAQQQYLNRGQQRQARPDANSNALLHALISGGGNNHASGYPMNGQPQKHHSNLRFGDNQNFQSFESNQPHFATQYKQQYQQSQQQHPHQQPQQLNSLHQNNAGAVNSFNKAQMQAQSAISMLPNSGDEFH
binding [1]: binds

B3: Squid (protein, UniProt Q08473 1-344)
chain: MAENKQVDTEINGEDFTKDVTADGPGSENGDAGAAGSTNGSSDNQSAASGQRDDDRKLFVGGLSWETTEKELRDHFGKYGEIESINVKTDPQTGRSRGFAFIVFTNTEAIDKVSAADEHIINSKKVDPKKAKARHGKIFVGGLTTEISDEEIKTYFGQFGNIVEVEMPFDKQKSQRKGFCFITFDSEQVVTDLLKTPKQKIAGKEVDVKRATPKPENQMMGGMRGGPRGGMRGGRGGYGGRGGYNNQWDGQGSYGGYGGGYGGYGAGGYGDYYAGGYYNGYDYGYDGYGYGGGFEGNGYGGGGGGNMGGGRGGPRGGGGPKGGGGFNGGKQRGGGGRQQRHQPY
binding [1]: binds

B4: Hrp48 (endogenous) (protein, UniProt P48809 1-421)
chain: MEEDERGKLFVGGLSWETTQENLSRYFCRFGDIIDCVVMKNNESGRSRGFGFVTFADPTNVNHVLQNGPHTLDGRTIDPKPCNPRTLQKPKKGGGYKVFLGGLPSNVTETDLRTFFNRYGKVTEVVIMYDQEKKKSRGFGFLSFEEESSVEHVTNERYINLNGKQVEIKKAEPRDGSGGQNSNNSTVGGAYGKLGNECSHWGPHHAPINMMQGQNGQMGGPPLNMPIGAPNMMPGYQGWGTSPQQQQYGYGNSGPGSYQGWGAPPGPQGPPPQWSNYAGPQQTQGYGGYDMYNSTSTGAPSGPSGGGSWNSWNMPPNSAGPTGAPGAGAGTATDMYSRAQAWATGGPSTTGPVGGMPRTGPGNSASKSGSEYDYGGYGSGYDYDYSNYVKQEGASNYGAGPRSAYGNDSSTQPPYATSQAV
binding [2]: binds weakly

B5: Half pint (endogenous) (protein, UniProt Q8T6B9 1-637)
chain: MGSNDRASRSPRSDDQREISDMPATKRTRSDSGKSTDSKIPYLSQPLYDLKQTGDVKFGPGTRSALLGLLGGALPKLSSEQHDLVSKAKKYAMEQSIKMVLMKQTLAHQQQQLATQRTQVQRQQALALMCRVYVGSISFELKEDTIRVAFTPFGPIKSINMSWDPITQKHKGFAFVEYEIPEGAQLALEQMNGALMGGRNIKVGRPSNMPQAQQVIDEVQEEAKSFNRIYVASIHPDLSEEDIKSVFEAFGPILYCKLAQGTSLHTHKGYGFIEYANKQAMDEAIASMNLFDLGGQLLRVGRSITPPNALACPTTNSTMPTAAAVAAAAATAKIQALDAVASNAVLGLSQNTPVMAAGAVVTKVGAMPVVSAATSAAALHPALAQAAPALLPPGIFQAPTPVAPSLLGVPAGLQPLQAVVPTLPPPALLATPTLPMTVGGVGVGLVPTVATLAGAEASKGAAAAAALSAAANNAAVTAANLSENIKKAHEKQQEELQKKLMDEGDVQTLQQQENMSIKGQSARQLVMQRLMRPVDSRVIILRNMVGPEDVDETLQEEIQEECSKFGTVSRVIIFNEKQTENEDDDEAEIIVKIFVEFSAGAEAMRGKEALDGRFFGGRRVVAELYDQGIFDQGDLSG
binding [2]: binds weakly

B6: Gustavus (protein, UniProt A1Z6E0 1-279)
chain: MGQKISGGVKTVSRNDSQSTFKPIIPRELQADFVKPARIDILLDMPPASRDLQLKHSWNSEDRSLNIFVKEDDKLTFHRHPVAQSTDCIRGKVGLTKGLHIWEIYWPTRQRGTHAVVGVCTADAPLHSVGYQSLVGSTEQSWGWDLGRNKLYHDSKNCAGVTYPAILKNDEAFLVPDKFLVALDMDEGTLSFIVDQQYLGIAFRGLRGKKLYPIVSAVWGHCEITMRYIGGLDPEPLPLMDLCRRTIRQKIGRTNLEEHIQQLQLPLSMKTYLLYKNRR
binding [3]: binds

B7: F-box synaptic protein (protein, UniProt Q9V6L9 1-255)
chain: MVDPVAALCNYNVLEVIFSYLELDDLSHCSQVCKSWYHFLNDENSDVWRWHCLNKLPKESLKSDLLASVSTYKTKLRAYFHAWSPNDCSRNVYIKPNGFTLHRNPVAQSTDAARGKIGFRHGRHTWEVIWEGPLGTVAVIGISTKEAALQCHGYVALLGSDDQSWGWNLVENHLLHNGDMQGSYPLLNNAPKYQVGERIRVILDCEDNTLSFEKNYEFLGVAFRGLPDKKLYPTVSAVYGNTEVSMVYLGTPLDG
binding [3]: binds
